This is an account of results in paper PMC8111302.

Sequences of proteins named here, by UniProt entry; tags and fusion partners are left off.
UniProt Q00987: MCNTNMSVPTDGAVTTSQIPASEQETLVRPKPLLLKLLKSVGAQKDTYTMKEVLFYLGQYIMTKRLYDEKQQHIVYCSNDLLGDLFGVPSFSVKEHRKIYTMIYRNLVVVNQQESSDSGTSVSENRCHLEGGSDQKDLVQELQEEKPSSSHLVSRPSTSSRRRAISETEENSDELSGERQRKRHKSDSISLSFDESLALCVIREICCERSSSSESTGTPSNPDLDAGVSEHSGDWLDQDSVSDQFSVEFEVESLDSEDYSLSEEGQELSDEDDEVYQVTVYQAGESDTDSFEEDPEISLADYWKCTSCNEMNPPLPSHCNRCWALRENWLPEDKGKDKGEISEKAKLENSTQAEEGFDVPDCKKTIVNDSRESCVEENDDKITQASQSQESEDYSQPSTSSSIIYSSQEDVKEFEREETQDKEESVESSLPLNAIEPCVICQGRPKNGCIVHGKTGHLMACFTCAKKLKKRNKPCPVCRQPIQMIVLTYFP
UniProt Q9UNE7: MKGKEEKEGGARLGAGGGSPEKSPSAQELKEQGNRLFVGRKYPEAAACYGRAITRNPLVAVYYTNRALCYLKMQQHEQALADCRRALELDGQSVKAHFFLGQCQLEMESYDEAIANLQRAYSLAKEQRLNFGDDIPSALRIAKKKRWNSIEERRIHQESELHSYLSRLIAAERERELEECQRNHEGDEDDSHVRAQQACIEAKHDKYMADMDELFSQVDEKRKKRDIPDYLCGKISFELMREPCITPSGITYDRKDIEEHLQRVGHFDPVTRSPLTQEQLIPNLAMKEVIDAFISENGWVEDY
UniProt P03372: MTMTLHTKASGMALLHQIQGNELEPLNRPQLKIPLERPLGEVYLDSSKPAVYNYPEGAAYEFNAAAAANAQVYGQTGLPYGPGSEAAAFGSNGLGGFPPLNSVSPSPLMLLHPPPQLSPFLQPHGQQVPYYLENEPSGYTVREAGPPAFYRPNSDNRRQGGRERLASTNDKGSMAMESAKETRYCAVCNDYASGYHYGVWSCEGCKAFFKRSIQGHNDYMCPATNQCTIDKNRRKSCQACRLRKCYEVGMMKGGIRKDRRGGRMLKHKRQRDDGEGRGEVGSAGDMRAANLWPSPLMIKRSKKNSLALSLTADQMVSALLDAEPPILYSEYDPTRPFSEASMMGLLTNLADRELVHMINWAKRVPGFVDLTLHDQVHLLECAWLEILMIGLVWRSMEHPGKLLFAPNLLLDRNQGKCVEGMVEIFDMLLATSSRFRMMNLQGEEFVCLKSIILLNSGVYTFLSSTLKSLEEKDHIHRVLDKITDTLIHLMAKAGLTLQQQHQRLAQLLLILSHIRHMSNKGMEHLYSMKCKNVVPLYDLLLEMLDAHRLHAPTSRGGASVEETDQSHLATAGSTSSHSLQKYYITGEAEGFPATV
UniProt Q92731: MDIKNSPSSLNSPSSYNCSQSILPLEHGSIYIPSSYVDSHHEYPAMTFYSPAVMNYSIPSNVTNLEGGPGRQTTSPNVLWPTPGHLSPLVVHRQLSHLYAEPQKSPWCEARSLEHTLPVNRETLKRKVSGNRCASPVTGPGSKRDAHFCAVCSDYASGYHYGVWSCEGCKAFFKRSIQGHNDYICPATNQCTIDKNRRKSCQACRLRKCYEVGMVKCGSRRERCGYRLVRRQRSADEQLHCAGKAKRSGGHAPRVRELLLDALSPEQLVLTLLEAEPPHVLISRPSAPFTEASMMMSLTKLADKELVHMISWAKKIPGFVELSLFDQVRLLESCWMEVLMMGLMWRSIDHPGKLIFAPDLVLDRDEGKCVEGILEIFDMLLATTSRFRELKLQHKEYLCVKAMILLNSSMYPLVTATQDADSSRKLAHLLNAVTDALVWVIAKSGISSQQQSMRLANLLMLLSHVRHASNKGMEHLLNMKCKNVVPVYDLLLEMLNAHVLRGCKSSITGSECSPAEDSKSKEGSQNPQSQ

The target in assay [1] is HA-MDM2 (mouse double minute 2) (UniProt Q00987). As to the kind of experiment: co-IP; MDM2 and ERα overexpressed in HESCs-En cells; precipitating antibody not stated.
Assay [2] deals with HA-CHIP (hsc70-interacting protein) (UniProt Q9UNE7). As to the kind of experiment: co-IP; HESCs-En cells transfected with HA-CHIP and FLAG-ERα or FLAG-ERβ; lysate precipitated with HA antibody and Protein A + G beads.

Results are given in words; binding and its absence hold for the method and conditions named. In cells and extracts the contact can be indirect. Some results given as binding are weak or reduced against the parent protein; the word gives no strength.

For the substance “FLAG-ERα (estrogen receptor α) (from UniProt P03372 1-595)”, the binding result in assay [1] and in assay [2] was “binds” throughout.
In the case of “FLAG-ERβ (estrogen receptor β) (from UniProt Q92731 1-530)”, the binding result in assay [2] was “binds”.
